Not every detail of the peptide structures is certain; ends, links or a residue may be inferred. Square brackets hold non-standard residues; d marks the D form. Peptide text beside a SMILES is read from it.
Tested on: growth hormone (GH)
Assay: In vivo growth hormone release study in cows (plasma GH by RIA after i.v. bolus)
Parameters: species or system lactating Holstein cows
Conditions: lactating dairy cows; for GH AUC / Log (GH AUC): bolus IV infusion, mean±SEM; for GH AUC: GH area under the curve over 180 minutes, corrected for molecular weight

Structure (SMILES) | GH AUC (3 mcg/kg bw) | Log (GH AUC) (3 mcg/kg bw) | GH AUC (9 mcg/kg bw) | Log (GH AUC) (9 mcg/kg bw) | release and elevation of growth hormone levels in the blood (result in words, summary of Table 5)
C[C@H](NC(=O)[C@@H](Cc1c[nH]c2ccccc12)NC(=O)[C@@H](N)Cc1c[nH]cn1)C(=O)N[C@@H](Cc1c[nH]c2ccccc12)C(=O)N[C@H](Cc1ccccc1)C(=O)N[C@@H](CCCCN)C(N)=O [Comparison A, His-DTrp-Ala-Trp-DPhe-Lys-NH₂] (H-H[dW]AW[dF]K-NH2) | 1,485±1,008 ng-min/mL | 6.86±0.38 | 3,734±1,008 ng-min/mL | 7.82±0.38 | 
C[C@H](NC(=O)[C@@H](Cc1ccccc1)NC(=O)[C@H](Cc1c[nH]c2ccccc12)NC(=O)[C@H](C)NC(=O)[C@@H](Cc1c[nH]c2ccccc12)NC(=O)[C@@H](N)Cc1c[nH]cn1)C(=O)N[C@@H](CCCCN)C(N)=O [Invention, His-DTrp-Ala-Trp-DPhe-Ala-Lys-NH₂] (H-H[dW]AW[dF]AK-NH2) | 1,592±1,008 ng-min/mL | 7.00±0.38 | 6,159±1,008 ng-min/mL | 8.46±0.38 | greater than or equal to the levels observed with previously disclosed novel growth hormone releasing peptides
C[C@H](NC(=O)[C@@H](Cc1c[nH]c2ccccc12)NC(=O)[C@H](Cc1c[nH]cn1)NC(=O)[C@@H](N)CCCCN)C(=O)N[C@@H](Cc1c[nH]c2ccccc12)C(=O)N[C@H](Cc1ccccc1)C(=O)N[C@@H](CCCCN)C(N)=O [Comparison B, Lys-His-DTrp-Ala-Trp-DPhe-Lys-NH₂] (H-KH[dW]AW[dF]K-NH2) | 795±1,008 ng-min/mL | 6.72±0.38 | 3,129±1,008 ng-min/mL | 7.81±0.38 | 
